Some of the results follow.

Sequences of proteins named here, by UniProt entry; tags and fusion partners are left off.
UniProt Q0JBA9, entry or part of it: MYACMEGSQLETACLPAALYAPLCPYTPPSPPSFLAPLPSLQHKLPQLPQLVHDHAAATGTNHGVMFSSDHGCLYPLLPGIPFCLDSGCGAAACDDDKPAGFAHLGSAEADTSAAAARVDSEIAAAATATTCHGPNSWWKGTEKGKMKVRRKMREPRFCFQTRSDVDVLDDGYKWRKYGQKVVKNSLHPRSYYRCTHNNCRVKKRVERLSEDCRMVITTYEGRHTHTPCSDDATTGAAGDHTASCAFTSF

For 42 sequences, binding signal results are on record in article PMC7819943, “Rice protein-binding microarrays: a tool to detect cis-acting elements near promoter regions in rice”.

This assay deals with OsWRKY34 (Oryza sativa, UniProt Q0JBA9 1-250). As to the kind of experiment: protein-binding microarray (RPBM); PBS, 2% BSA, 51.3 ng/ul salmon testes DNA, 50 uM zinc acetate, 200 nM TF, 25 C, 1 h; high values mean tight binding. Conditions: protein: recombinant; tags: N-terminal polyhistidine and DsRed monomer fusion (pET32a); label: CyDye5-dUTP incorporated in the synthesized complementary strand; 3' TTTTT single-stranded linker to array surface; dsDNA, one strand shown. The procedure, abridged: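 In PBS with 2% BSA, salmon testes DNA and 50 µM zinc acetate, 200 nM protein was incubated on a custom Agilent array at 25 °C for 1 h and then washed off. The array had been made double-stranded by primer extension with Cy5-dUTP and blocked with 2% BSA. The proteins were transcription factors fused N-terminally to polyhistidine and DsRed, expressed in E. coli BL21-CodonPlus and purified on Ni–NTA. The binding signal is per-feature fluorescence intensity (arbitrary units) from an Axon 4000B scanner.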
For “TCGTGTTGCTGCTTAATTGCTGTGCTTCTCCATCGCCATGCGGAGTCACCTAGTGCAG”, the binding signal is 9940 fluorescence intensity (a.u.).
Then “ATCTATGTCAGCATATTTTCCTACTTGGAATGTATTAAATCGGAGTCACCTAGTGCAG”, with 8410 fluorescence intensity (a.u.); and “CGCGCCATCATGTCGTCCTCGAGCCCCACGCGCCATCATGCGGAGTCACCTAGTGCAG”, with 8940 fluorescence intensity (a.u.); and “TATTGTACATGCTCTATCGTCAACCACTGAGCTACTAGTACGGAGTCACCTAGTGCAG”, with 8480 fluorescence intensity (a.u.).
Regarding “TTGTTGGGCTGGGCTGGGATTCCCAAGAAGGTCTAGACTTCGGAGTCACCTAGTGCAG”, the binding signal is 11400 fluorescence intensity (a.u.).
For the sequence “CGCTGCCTGTGTTTTTCCGCGTGACGACGGCGCGGAGATCCGGAGTCACCTAGTGCAG”, the binding signal was 8120 fluorescence intensity (a.u.).
As for “AATTGTGTGCTTGTCAATTATATTTATTTGGATTTTCTCTCGGAGTCACCTAGTGCAG”, the figure is 8960 fluorescence intensity (a.u.); as for “CATTACGTGAAGGACGCCTATGTACCATGACACGCTCCAACGGAGTCACCTAGTGCAG”, 8370 fluorescence intensity (a.u.); as for “CACATATGGCATCTACATCTCCCAACCTTGCACACATCGACGGAGTCACCTAGTGCAG”, 8350 fluorescence intensity (a.u.).
Take “GACTTGCTTAGCAGTGCCACAATTCCTTTCCACTCTCTCTCGGAGTCACCTAGTGCAG”: the binding signal is 9340 fluorescence intensity (a.u.).
Then “GTCGCATCAGTCGAGCTCGGCCGGAGGAGGAGGGGAGGGTCGGAGTCACCTAGTGCAG”, with 10800 fluorescence intensity (a.u.).
As for “AGATGGCTTGTCGTGGCTGCTGTGGCGCATGTACCCGGATCGGAGTCACCTAGTGCAG”, the figure is 8640 fluorescence intensity (a.u.).
As for “GCCCCGTCATGGGAGAAGCCGCTTTTTTTTTTTTTTTTTGCGGAGTCACCTAGTGCAG”, the figure is 8760 fluorescence intensity (a.u.); as for “GTCAGTCCTTGTCACGTTTGCTACGGCCATCCCGTCCAATCGGAGTCACCTAGTGCAG”, 12400 fluorescence intensity (a.u.).
On to “TTACTCCCTTGCCTTTTAAGCACTCTTTCCTTCCTTACAACGGAGTCACCTAGTGCAG”, for which the binding signal was 8410 fluorescence intensity (a.u.).
As for “GGGTTTCCAAAATATGTGGGTTTTTTTTGTTGCAATGAAACGGAGTCACCTAGTGCAG”, the figure is 12200 fluorescence intensity (a.u.); as for “AATTCGATCTCTTCTTTCTCCCTTTTTTTCTGTTCGGTTTCGGAGTCACCTAGTGCAG”, 8730 fluorescence intensity (a.u.); as for “CTACTAGCTAGTGCTCTCACTCTCACTCACTCACACTGTCCGGAGTCACCTAGTGCAG”, 12700 fluorescence intensity (a.u.).
As for “TATTTTCTTTCTGCAGAACTGCTATCACTGTCTGTAACATCGGAGTCACCTAGTGCAG”, the figure is 9660 fluorescence intensity (a.u.).
Then “CCCATCACCGCCCTTGGCCGAGCCGCATCTACCCGCATCGCGGAGTCACCTAGTGCAG”, with 8770 fluorescence intensity (a.u.); and “ATTGATCTCCTTTGACTTTTGCCAGTATCTCCTCTTCCTTCGGAGTCACCTAGTGCAG”, with 12700 fluorescence intensity (a.u.).
“AGCCGATTTTCTTTCTTGCTTAATTATTATCCGGCGTCTTCGGAGTCACCTAGTGCAG”: the binding signal was 11400 fluorescence intensity (a.u.).
Take “TGCTAAAAAGTCAACGGTGTCAAACATTTCGAAACGGAGGCGGAGTCACCTAGTGCAG”: the binding signal is 10900 fluorescence intensity (a.u.).
As for “ATGTCTCTGTTTTCATAGTTCTATTTATGATATTATAACACGGAGTCACCTAGTGCAG”, the figure is 8760 fluorescence intensity (a.u.); as for “TCGTTTTTTTTTTCTTTTCTTGATCTCTTCTCCTCCTTCCCGGAGTCACCTAGTGCAG”, 8680 fluorescence intensity (a.u.).
Then “GAGGAGGAATTTCTGGTTGGATTTAGTGGATCGTTTTAAACGGAGTCACCTAGTGCAG”, with 8520 fluorescence intensity (a.u.); and “TTCTCTCTCCAGTCCAATCTCACCCATCGCCGACGACCCACGGAGTCACCTAGTGCAG”, with 9150 fluorescence intensity (a.u.).
As for “TTTATTTCGAGCTACTTTTGACTTTCCATCTGATTTGCCGCGGAGTCACCTAGTGCAG”, the figure is 8210 fluorescence intensity (a.u.).
As for “TCTGTGCGAGGAGTGGTTCTGTGGTTTTCTGCATGTTCAACGGAGTCACCTAGTGCAG”, the binding signal was 12000 fluorescence intensity (a.u.).
As for “CTGGTTTTTGAGCCTCTCGTGCCTGATCCTGCTTTCTTGTCGGAGTCACCTAGTGCAG”, the figure is 8192 fluorescence intensity (a.u.); as for “TAGTTTATTAGTTTGGCTTATGTCTCACCGTGATCATCTCCGGAGTCACCTAGTGCAG”, 8700 fluorescence intensity (a.u.); as for “TGAATCGGGTCATGTCTTTCTGACCATGTTTGGTGGATTTCGGAGTCACCTAGTGCAG”, 8440 fluorescence intensity (a.u.).
As for “CTCTTTTTACCGTACCTGTTCCTATTTGAAATATTTAGATCGGAGTCACCTAGTGCAG”, the figure is 9350 fluorescence intensity (a.u.); as for “AATACGTACGCTTGCTTCATCTTCTTCTTCACCATCCATGCGGAGTCACCTAGTGCAG”, 9030 fluorescence intensity (a.u.); as for “CAACCTCTCCGGGGCGGGGCTGGCCGGCGAGCTGGCGGCGCGGAGTCACCTAGTGCAG”, 9150 fluorescence intensity (a.u.).
In the case of “CGCCGCACTCCTGTCTGTCTCTGCACTCTCGGACTCGTCTCGGAGTCACCTAGTGCAG”, the binding signal is 8200 fluorescence intensity (a.u.).
As for “ACAGCTGCAAACTCCTCCTTCCTTGATTTCTTCACCCTGTCGGAGTCACCTAGTGCAG”, the figure is 8160 fluorescence intensity (a.u.); as for “TAAAGCATCCGACACTGCCACGTGGGCCCACCGACCCGACCGGAGTCACCTAGTGCAG”, 8040 fluorescence intensity (a.u.); as for “ACTTCTATAATATATGTAAATTACCTTTTGGCTTTGCTGACGGAGTCACCTAGTGCAG”, 8060 fluorescence intensity (a.u.).
As for “TTGATGTTTTTCTTAATTGTACCTTGATTTTGTTGACATACGGAGTCACCTAGTGCAG”, the figure is 9100 fluorescence intensity (a.u.).
As for “GAATTTTGCTTTGGTTCAACCTTTTTTCTCTTCTTTCTCTCGGAGTCACCTAGTGCAG”, the figure is 9740 fluorescence intensity (a.u.); as for “CAATCTCTTGACTATTTCTGCTGTCCAAGTCCAACAACGCCGGAGTCACCTAGTGCAG”, 9240 fluorescence intensity (a.u.).
